Reference: patent publication US20160237414A1
Residue numbers refer to the chain shown, from its start. These are yes or no findings as the source states them, for the method shown. Some binding calls cover weakened binding; strength is not graded here. For some of these results: Sequences can lack the tags named with a protein.

B1: WT GCase (mature human acid β-glucosidase, 497 amino acids) (enzyme)
chain: ARPCIPKSFGYSSVVCVCNATYCDSFDPPTFPALGTFSRYESTRSGRRMELSMGPIQANHTGTGLLLTLQPEQKFQKVKGFGGAMTDAAALNILALSPPAQNLLLKSYFSEEGIGYNIIRVPMASCDFSIRTYTYADTPDDFQLHNFSLPEEDTKLKIPLIHRALQLAQRPVSLLASPWTSPTWLKTNGAVNGKGSLKGQPGDIYHQTWARYFVKFLDAYAEHKLQFWAVTAENEPSAGLLSGYPFQCLGFTPEHQRDFIARDLGPTLANSTHHNVRLLMLDDQRLLLPHWAKVVLTDPEAAKYVHGIAVHWYLDFLAPAKATLGETHRLFPNTMLFASEACVGSKFWEQSVRLGSWDRGMQYSHSIITNLLYHVVGWTDWNLALNPEGGPNWVRNFVDSPIIVDITKDTFYKQPMFYHLGHFSKFIPEGSQRVGLVASQKNDLDAVALMHPDGSAVVVVLNRSSKDVPLTIKDPAVGFLETISPGYSIHTYLWRRQ
B2: TAD GCase (TKD sequence, amino acids 407-409, changed to TAD) (enzyme)
chain: B1 chain with K408A
B3: AKA GCase mutant (TKD sequence, amino acids 407-409, changed to AKA) (enzyme)
chain: B1 chain with T407A, D409A

Key:
[1] = target: T1, Purified luminal domain LIMP-2 (ld-LIMP2) (UniProt Q14108); experiment: in vitro immunoprecipitation with ldLIMP-2 (FIG. 6)
T1 sequence (looked up): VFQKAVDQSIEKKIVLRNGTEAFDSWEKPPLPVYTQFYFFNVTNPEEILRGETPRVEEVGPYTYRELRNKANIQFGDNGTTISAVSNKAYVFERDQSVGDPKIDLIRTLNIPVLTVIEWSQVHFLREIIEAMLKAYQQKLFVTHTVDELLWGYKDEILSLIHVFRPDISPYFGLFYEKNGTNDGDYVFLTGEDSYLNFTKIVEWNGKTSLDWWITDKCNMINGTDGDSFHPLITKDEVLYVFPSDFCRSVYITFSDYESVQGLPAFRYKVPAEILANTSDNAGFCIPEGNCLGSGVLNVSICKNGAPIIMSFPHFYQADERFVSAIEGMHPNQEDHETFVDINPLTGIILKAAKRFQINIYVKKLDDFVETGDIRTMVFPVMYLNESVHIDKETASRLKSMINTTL

[2] = target: T1, Purified luminal domain LIMP-2 (ld-LIMP2); experiment: immunoprecipitation with ldLIMP2 on anti-LIMP2 beads, immunoblot (FIG. 6A)
[3] = target: T1, Purified luminal domain LIMP-2 (ld-LIMP2); experiment: in vitro immunoprecipitation with ldLIMP-2 (FIG. 6C)

Row | Binder | binding [1] | binding [2] | binding [3]
1 | B1 | binds | binds | –
2 | B2 | binds | – | –
3 | B3 | – | – | binds
